Laboratory results: US12496362B2, “Silicone-based enteric CT contrast material” (priority 2013, dated 2025)
Read-outs that look alike come from different tables or passages of the source. At least one compound was matched to its structure with a doubt left.

Key:
[1] = Dual energy CT of vials, virtual monochromatic images 40-140 keV (FIG. 2, FIG. 8)
[2] = CT numbers at 80, 100, 120, 140 kVp on clinical GE and Siemens dual energy CT scanners (FIG. 13-15); details: vials scanned at 80, 100, 120, 140 kVp (FIG. 15)
[3] = test system: bowel lumen; assay: In vivo DECT bowel imaging in the rat (FIG. 3)
[4] = test system: bowel lumen; assay: In vivo DECT bowel imaging in the rabbit (FIG. 4-6); details: intravascular (FIG. 4)
[5] = listed as intravascular iodinated contrast material

Compound: CC(=O)N(CC(O)CO)c1c(I)c(C(=O)NCC(O)CO)c(I)c(C(=O)NCC(O)CO)c1I (stereo not shown) [iohexol]
- contrast type achieved over the range of virtual monochromatic CT images ([1]; low to high keV range): achieves positive contrast and neutral contrast at the low and high range
- signal loss in CT number between 40 and 140 keV ([1]; vials, virtual monochromatic images): loses substantial signal
- change of signal (CT number) with kVp X-ray tube setting [2]: less intense signal (lower CT number) at higher kVp X-ray tube settings than at lower settings
- intravascular signal across 40, 70 and 90 keV images [3]: loses some signal between the 40 and 90 keV images but is still visible as bright signal
- intravascular signal across 40, 70 and 90 keV images [3, 5]: remains bright in signal
- intravascular signal across 40 and 90 keV images [4]: loses some signal between the 40 and 90 keV images but is still visible as bright signal
- intravascular signal across 40 and 90 keV images [4, 5]: remains bright in signal
